Experimental data: PubChem BioAssay AID1259264 (Sanger Institute, 2017)
The whole screen tested 794 reagents; below is a part drawn at random. Over the whole deposit, 15 (1.9%) were called active. 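Calls rest on knock-down alone at z-score below -3; synergy scores with the three drugs do not decide them.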 No viability above 1 is reported: the scale is capped. Further read-outs or replicates are left out here. The record does not give: the amount of reagent, the time to read-out.

Purpose: 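Kinases whose loss cuts CL40 colorectal cancer cell survival, alone or with drugs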 (primary screen)
Cells: CL40 human colorectal cancer cells
Reagent: siRNA pool against human genes
Treatment: DMSO, or an anchor drug: BYL719 at 1 µM, cetuximab at 5 µg/ml, or trametinib at 10 nM
Measurement: 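Viability as a fraction of non-targeting pool control (replicates averaged), control-based robust z-score, plus averaged synergy for each drug: BYL719 1 µM, cetuximab 5 µg/ml, trametinib 10 nM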
Direction: robust z-score, siRNA alone and viability, siRNA alone: higher = more viable cells
Units: viability, siRNA alone in fraction of control
Active means: 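Essential call: siRNA with no drug reaches a robust z under -3 (low cell count); drug synergy scores do not affect it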
Meaning of the calls: active = essential (lowers viability alone); inactive = not essential

DGKD scored robust z-score, siRNA alone 0.539; viability, siRNA alone 1; inactive. Depletion of MELK resulted in: robust z-score, siRNA alone 0.539; viability, siRNA alone 1; inactive. Against RTN4, the values are robust z-score, siRNA alone 0.539; viability, siRNA alone 1; inactive. After knock-down of PRKAG2, the screen gave robust z-score, siRNA alone 0.539; viability, siRNA alone 1; inactive. PRKG2 gave robust z-score, siRNA alone 0.216; viability, siRNA alone 0.977; inactive. Silencing of NUP107 resulted in: robust z-score, siRNA alone -9.47; viability, siRNA alone 0.282; active.

MAP4K1 gave robust z-score, siRNA alone -1.78; viability, siRNA alone 0.833; inactive. Silencing of LYN gave: robust z-score, siRNA alone -0.0986; viability, siRNA alone 0.954; inactive. Knock-down of DCLK3 came out at: robust z-score, siRNA alone 0.539; viability, siRNA alone 1; inactive. PAK5 scored robust z-score, siRNA alone -1.2; viability, siRNA alone 0.876; inactive. After knock-down of MET the results were robust z-score, siRNA alone -0.366; viability, siRNA alone 0.935; inactive. For CDKN1B, the entry reads robust z-score, siRNA alone 0.539; viability, siRNA alone 1; inactive.

2 consecutive records from above:
PRKG2 — robust z-score, siRNA alone = 0.216; viability, siRNA alone = 0.977; activity call = inactive
NUP107 — robust z-score, siRNA alone = -9.47; viability, siRNA alone = 0.282; activity call = active
